Data taken from PMC11377325.
Results are given in words; binding and its absence hold for the method and conditions named. In cells and extracts the contact can be indirect. Some results given as binding are weak or reduced against the parent protein; the word gives no strength.

Amino acid sequences for entries named in this document (tags omitted).
UniProt Q91Z31: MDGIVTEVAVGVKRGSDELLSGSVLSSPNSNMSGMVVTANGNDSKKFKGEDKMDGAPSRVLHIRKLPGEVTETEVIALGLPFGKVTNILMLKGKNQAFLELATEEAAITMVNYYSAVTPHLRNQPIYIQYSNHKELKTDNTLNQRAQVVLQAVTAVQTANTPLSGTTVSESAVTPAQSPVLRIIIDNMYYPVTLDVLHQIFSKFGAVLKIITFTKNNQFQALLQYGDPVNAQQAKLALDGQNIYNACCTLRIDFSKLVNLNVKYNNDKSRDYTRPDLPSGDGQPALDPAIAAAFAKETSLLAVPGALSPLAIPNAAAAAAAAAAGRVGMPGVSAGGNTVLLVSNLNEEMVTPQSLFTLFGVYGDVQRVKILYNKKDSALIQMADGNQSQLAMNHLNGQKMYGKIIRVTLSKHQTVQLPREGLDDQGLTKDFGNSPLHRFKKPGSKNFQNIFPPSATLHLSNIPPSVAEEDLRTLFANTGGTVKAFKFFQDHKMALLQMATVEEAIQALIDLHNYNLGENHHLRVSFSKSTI
UniProt P97801: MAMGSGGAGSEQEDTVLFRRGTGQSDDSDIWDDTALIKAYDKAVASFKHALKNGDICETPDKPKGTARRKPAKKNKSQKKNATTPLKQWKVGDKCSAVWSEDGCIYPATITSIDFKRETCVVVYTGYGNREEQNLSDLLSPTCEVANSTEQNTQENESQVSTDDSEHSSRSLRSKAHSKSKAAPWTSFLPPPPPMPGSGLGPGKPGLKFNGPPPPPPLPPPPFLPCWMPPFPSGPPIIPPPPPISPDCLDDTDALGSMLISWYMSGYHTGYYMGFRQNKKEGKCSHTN

Columns and labels:
[1] = target: Ptbp2 (mouse (endogenous in primary mouse motoneurons)) (UniProt Q91Z31); assay: proximity ligation; Duolink in situ PLA on fixed, permeabilised primary mouse motoneurons at DIV 6 with antibodies against Ptbp2 and Smn; no signal when either antibody was omitted
[2] = target: Ptbp2 (mouse (endogenous in primary mouse motoneurons)) (UniProt Q91Z31); assay: co-IP; anti-Ptbp2 antibody on Protein G Dynabeads, lysate of primary mouse motoneurons (DIV 7; 10 mM HEPES pH 7.0, 100 mM KCl, 5 mM MgCl2, 0.5% NP-40), without or with RNase A pre-treatment, overnight at 4°C; Smn detected by immunoblot

binding [1]: binds
binding [2]: binds
Substance: Smn (from UniProt P97801 1-288)
